These are yes or no findings as the source states them, for the method shown. In cells and extracts the contact can be indirect. These calls come from enrichment with a bait or labelling near it, and not all partners need be listed.

This assay has as its target EGFP-tagged PRRSV nucleocapsid (N) protein (PRRSV (type 2, strain 01NP1)). Put plainly: affinity purification with mass spectrometry; EGFP-N (control: EGFP) overexpressed in HEK293T, captured from lysate on GFP-trap agarose beads; lysis and wash buffer 50 mM HEPES pH 7.4, 150 mM NaCl, 1 mM EDTA, 10% glycerol, 1% Triton X-100; 2 h at 4 °C, 7 washes; label-free LC-MS/MS, three biological replicates; hits: mean enrichment ratio >= 8, p <= 0.02.

B1: ataxin-2-like protein (protein, UniProt Q8WWM7 1-1075)
chain: MLKPQPLQQPSQPQQPPPTQQAVARRPPGGTSPPNGGLPGPLATSAAPPGPPAAASPCLGPVAAAGSGLRRGAEGILAPQPPPPQQHQERPGAAAIGSARGQSTGKGPPQSPVFEGVYNNSRMLHFLTAVVGSTCDVKVKNGTTYEGIFKTLSSKFELAVDAVHRKASEPAGGPRREDIVDTMVFKPSDVMLVHFRNVDFNYATKDKFTDSAIAMNSKVNGEHKEKVLQRWEGGDSNSDDYDLESDMSNGWDPNEMFKFNEENYGVKTTYDSSLSSYTVPLEKDNSEEFRQRELRAAQLAREIESSPQYRLRIAMENDDGRTEEEKHSAVQRQGSGRESPSLASREGKYIPLPQRVREGPRGGVRCSSSRGGRPGLSSLPPRGPHHLDNSSPGPGSEARGINGGPSRMSPKAQRPLRGAKTLSSPSNRPSGETSVPPPPAVGRMYPPRSPKSAAPAPISASCPEPPIGSAVPTSSASIPVTSSVSDPGVGSISPASPKISLAPTDVKELSTKEPGRTLEPQELARIAGKVPGLQNEQKRFQLEELRKFGAQFKLQPSSSPENSLDPFPPRILKEEPKGKEKEVDGLLTSEPMGSPVSSKTESVSDKEDKPPLAPSGGTEGPEQPPPPCPSQTGSPPVGLIKGEDKDEGPVAEQVKKSTLNPNAKEFNPTKPLLSVNKSTSTPTSPGPRTHSTPSIPVLTAGQSGLYSPQYISYIPQIHMGPAVQAPQMYPYPVSNSVPGQQGKYRGAKGSLPPQRSDQHQPASAPPMMQAAAAAGPPLVAATPYSSYIPYNPQQFPGQPAMMQPMAHYPSQPVFAPMLQSNPRMLTSGSHPQAIVSSSTPQYPSAEQPTPQALYATVHQSYPHHATQLHAHQPQPATTPTGSQPQSQHAAPSPVQHQAGQAPHLGSGQPQQNLYHPGALTGTPPSLPPGPSAQSPQSSFPQPAAVYAIHHQQLPHGFTNMAHVTQAHVQTGITAAPPPHPGAPHPPQVMLLHPPQSHGGPPQGAVPQSGVPALSASTPSPYPYIGHPQGEQPGQAPGFPGGADDRIREFSLAGGIWHGRAEGLQVGQDARVLGGE
Take B1: the binding entry is listed as “binds”.

The record behind these values is PMC12604043.
